{
  "source": "PubChem BioAssay AID602313",
  "about": "(National Center for Advancing Translational Sciences (NCATS), 2012)",
  "note": "The whole screen tested about 390,000 compounds, of which about 760 (0.19%) were called active. The inconclusive results got no clear call from the source; some entries with a clear call stand among them for comparison. The call rests on the fitted dose curve; in most records, active means well fitted inhibition curve with a large enough effect; inconclusive means small, poorly fitted or top-dose-only effect; inactive means flat fitted curve, though single readings scatter. Potencies beside an inconclusive call are fits to weak or partial responses and may not hold up. Potency means the concentration at half of the fitted maximal effect.",
  "data": [
    {"assay": "qHTS for Inhibitors of Vif-A3F Interactions: qHTS; further: nearly all actives have a fitted effect of over 65% in size", "settings": "HeLa A3F-eYFP + Vif (tagged APOBEC3F with the HIV-1 protein that degrades it), YFP fluorescence increase; series mostly up to 46.1 µM", "method_in_brief": "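Fluorescence increase (Ex 488/Em 500-530) after overnight compound treatment at 37 deg C flags inhibition of Vif-driven A3F-eYFP loss in stable HeLa A3F-eYFP/Vif cells seeded overnight beforehand.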", "values": [
      {"smiles": "NC1=NC2=C(CCCC2)C2(CCCCC2)S1", "Potency": "inactive"},
      {"smiles": "Cc1ccc(NC(=O)c2sc3nc(-c4ccncc4)ccc3c2N)cc1", "Potency": "inconclusive: 6.31 µM [inhibitor, partial curve, poor fit]"},
      {"smiles": "O=C1/C(=C/C=C/c2ccccc2)Oc2c1ccc(O)c2CN1CCN(CCO)CC1", "Potency": "inconclusive: 28.2 µM [inhibitor, single point]"},
      {"smiles": "O=C(NN=Cc1c[nH]c2ccccc12)NN=Cc1c[nH]c2ccccc12", "Potency": "inconclusive: 35.5 µM [inhibitor, single point]"},
      {"smiles": "Cn1c(=O)c([N+](=O)[O-])c(-n2cnc3ccccc32)c2ccccc21", "Potency": "inactive"},
      {"smiles": "CSCCC(NS(=O)(=O)c1ccccc1F)C(=O)NCc1ccncc1", "note": "(stereo not given)", "Potency": "inconclusive: 15.8 µM [inhibitor, single point]"},
      {"smiles": "O=C(/C=C/c1ccccc1)c1ccccc1", "Potency": "inconclusive: 6.31 µM [inhibitor, single point]"},
      {"smiles": "COc1ccccc1NC(=O)c1oc2ccccc2c1NC(=O)c1cccc(OC)c1OC", "Potency": "inactive"},
      {"smiles": "CCn1nc(C(=O)Nc2nc(-c3ccccn3)cs2)c2ccccc2c1=O", "Potency": "inconclusive: 3.98 µM [inhibitor, single point]"},
      {"smiles": "CS(=O)(=O)c1ccc2nc(NC(=O)c3ccc(Cl)cc3)sc2c1", "Potency": "inactive"},
      {"smiles": "COc1ccc2[nH]c3c(C)c4ccncc4c(C)c3c2c1", "Potency": "inconclusive: 5.62 µM [inhibitor, single point]"},
      {"smiles": "Cc1ccc(S(=O)(=O)CCC(=O)NNC(=O)CN(C)S(=O)(=O)c2ccc(C)cc2)cc1", "Potency": "inconclusive: 6.31 µM [inhibitor, single point]"},
      {"smiles": "C/C(=N\\Nc1nccnc1Cl)c1ccc(Cl)c(Cl)c1", "Potency": "active: 25.1 µM"},
      {"smiles": "O=[N+]([O-])c1cccnc1N1CCC(c2cc(-c3ccc(Cl)cc3)n[nH]2)CC1", "Potency": "inconclusive: 35.5 µM [inhibitor, single point]"},
      {"smiles": "N/C(=N\\OC(=O)Cc1ccc([N+](=O)[O-])cc1)c1cccc(Br)c1", "Potency": "inconclusive: 0.316 µM [inhibitor, full curve, poor fit]"},
      {"smiles": "O=C(CSc1ncnc2c1cnn2-c1cccc(Cl)c1)NCC1CCCO1", "note": "(stereo not given)", "Potency": "inconclusive: 14.1 µM [inhibitor, partial curve, poor fit]"},
      {"smiles": "CN1C2CCC1CC(N(CCc1ccccc1)C(=O)c1ccc(Cl)cc1)C2", "note": "(stereo not given)", "Potency": "inconclusive: 12.6 µM [inhibitor, partial curve, poor fit]"},
      {"smiles": "COc1ccc(NC(=O)c2sc3nc(-c4cccnc4)ccc3c2N)cc1OC", "Potency": "active: 5.62 µM"},
      {"smiles": "O=[N+]([O-])c1ccc(COc2ccc(CNc3ccccc3)cc2)cc1", "Potency": "inconclusive: 2 µM [inhibitor, partial curve, poor fit]"},
      {"smiles": "NC(=O)CSc1nc2c(sc3ccccc32)c(=O)n1CCCC(=O)NCC1CCCO1", "note": "(stereo not given)", "Potency": "inconclusive: 3.16 µM [inhibitor, full curve, poor fit]"},
      {"smiles": "O=C(Nc1ccc([N+](=O)[O-])cc1)Nc1ccc2c(c1)OCCO2", "Potency": "inactive"},
      {"smiles": "CCCS(=O)(=O)Nc1cccc(-c2nc3cccnc3s2)c1", "Potency": "inconclusive: 35.5 µM [inhibitor, single point]"},
      {"smiles": "CCN(CC)S(=O)(=O)c1ccc(Cl)c(C(=O)Nc2nncs2)c1", "Potency": "inactive"},
      {"smiles": "O=C(NC(=S)Nc1ccc(Cl)c(C(=O)O)c1)c1cccc(COc2ccccc2)c1", "Potency": "inactive"},
      {"smiles": "CCN(CC)c1nc2ccccc2[nH]c1=O", "Potency": "inconclusive: 17.8 µM [inhibitor, partial curve, poor fit]"},
      {"smiles": "CCOc1ccccc1C=NNc1ccc([N+](=O)[O-])cn1", "Potency": "inconclusive: 3.98 µM [inhibitor, full curve, poor fit]"},
      {"smiles": "COc1ccc(C(NC(=O)c2cc(OC)ccc2OC)c2ccccc2)cc1", "note": "(stereo not given)", "Potency": "inconclusive: 5.62 µM [inhibitor, single point]"},
      {"smiles": "COc1cc(OC)c(C2Nc3cccc4cccc(c34)N2)c(OC)c1", "Potency": "active: 11.2 µM"},
      {"smiles": "Cc1cccc(NC(=O)CSc2nc(C)c(CC(=O)c3ccc(Br)cc3)c(C)c2C#N)c1C", "Potency": "inconclusive: 3.16 µM [inhibitor, single point]"},
      {"smiles": "COc1ccc(C(=O)Nc2ccc(Oc3ncnc4sc(-c5ccccc5)cc34)cc2)cc1OC", "Potency": "inactive"},
      {"smiles": "COc1ccccc1/C=C/C(=O)OCC(=O)Nc1ccc(Cl)cn1", "Potency": "inconclusive: 28.2 µM [inhibitor, single point]"},
      {"smiles": "O=C(/C=C/c1ccco1)Nc1nc(-c2ccccc2)cs1", "Potency": "inactive"},
      {"smiles": "CNc1nc(-c2ccc3c(c2)CCN3C(=O)c2ccc(F)cc2)cs1", "Potency": "inconclusive: 6.31 µM [inhibitor, single point]"},
      {"smiles": "Cc1occc1C(=O)N/N=C/C(Br)=C/c1ccccc1", "Potency": "inconclusive: 35.5 µM [inhibitor, single point]"},
      {"smiles": "N#CCC(=N)N1CCN(c2ccc(F)cc2)CC1", "Potency": "inactive"},
      {"smiles": "COCCCNC(=O)c1c(NC(=O)Cc2coc3c(C)c(C)ccc23)sc2c1CCCC2", "Potency": "inactive"},
      {"smiles": "Cc1cc(C(F)(F)F)c2c(N)c(C(=O)Nc3cc(C)on3)sc2n1", "Potency": "active: 11.2 µM"},
      {"smiles": "CC1CN(C(=O)c2cc3cc([N+](=O)[O-])ccc3oc2=O)CC(C)O1", "note": "(stereo not given)", "Potency": "inactive"},
      {"smiles": "CCCNC(=O)CN1C(=O)NC(CC)(c2ccc(F)cc2)C1=O", "note": "(stereo not given)", "Potency": "inconclusive: 2.82 µM [inhibitor, partial curve, poor fit]"},
      {"smiles": "COc1cc(/C=C(\\C#N)C(N)=O)ccc1OS(=O)(=O)c1ccc(C)cc1", "Potency": "inconclusive: 3.16 µM [inhibitor, single point]"},
      {"smiles": "CCOCCCN(Cc1ccco1)S(=O)(=O)c1cc2c(cc1Cl)NC(=O)CO2", "Potency": "inconclusive: 22.4 µM [inhibitor, single point]"},
      {"smiles": "COc1ccccc1N1CCN(Cc2ccc(C(=O)O)cc2)CC1", "Potency": "inconclusive: 5.62 µM [inhibitor, single point]"},
      {"smiles": "O=[N+]([O-])c1ccc(N2CCOCC2)cc1O", "Potency": "inactive"},
      {"smiles": "O=C(NCC(c1ccco1)N1CCN(c2ccc(F)cc2)CC1)C1CCCCC1", "note": "(stereo not given)", "Potency": "inconclusive: 5.62 µM [inhibitor, partial curve]"},
      {"smiles": "Cn1c(=O)oc2cc(S(=O)(=O)N3CCN(c4ccccc4)CC3)ccc21", "Potency": "inconclusive: 35.5 µM [inhibitor, single point]"}
    ]}
  ]
}
